Results: PubChem BioAssay AID1259354 (Paczesny and Yang Labs, IUPUI and University of Michigan, 2018)
About 1,800 (2.3%) of roughly 78,000 compounds were called active. Inconclusive means that the source gave no clear call. Such entries were picked first, then a sample of the others. Cut-off read from the data, not from the text of the source: active = inhibition above about 30%; inconclusive = mostly about 10% to 28%; inactive = weaker than that.

Sequences of proteins named here, by UniProt entry; tags and fusion partners are left off. A change or cut given only in a name is not applied to a line headed by its entry.
UniProt Q01638: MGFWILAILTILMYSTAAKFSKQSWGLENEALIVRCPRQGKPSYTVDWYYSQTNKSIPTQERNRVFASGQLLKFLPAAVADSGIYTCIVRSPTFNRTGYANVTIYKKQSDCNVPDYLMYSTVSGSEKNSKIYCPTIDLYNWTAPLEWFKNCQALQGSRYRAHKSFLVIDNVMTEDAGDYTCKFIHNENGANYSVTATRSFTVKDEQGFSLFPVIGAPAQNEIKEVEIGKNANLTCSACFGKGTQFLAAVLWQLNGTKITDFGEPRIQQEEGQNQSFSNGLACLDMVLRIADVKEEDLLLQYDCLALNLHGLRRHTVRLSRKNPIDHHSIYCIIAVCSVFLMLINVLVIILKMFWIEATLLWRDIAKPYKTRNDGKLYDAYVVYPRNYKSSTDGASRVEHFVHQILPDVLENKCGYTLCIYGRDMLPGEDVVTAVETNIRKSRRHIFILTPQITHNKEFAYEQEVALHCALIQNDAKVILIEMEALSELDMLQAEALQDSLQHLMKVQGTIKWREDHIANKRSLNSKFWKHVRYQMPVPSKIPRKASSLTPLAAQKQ

Target: Interleukin-1 receptor-like 1 (Homo sapiens) (UniProt Q01638)
Test: blocks human ST2 binding to IL-33, primary screen, biochemical, AlphaLISA (AID 1259354)
Conditions: AlphaLISA ST2-Fc/biotin-IL-33 interaction, 1 h; at 17 µM, hits give high values

| Compound | inhibition |
| --- | --- |
| COc1ccc(OC)c(NS(=O)(=O)c2c(C)noc2C)c1 | inactive |
| Cc1cc(N2CCCCC2)nc(N2CCN(S(=O)(=O)c3ccc(C)c(C)c3)CC2)n1 | inconclusive: 25% |
| CN1CC2(CCCN(C(=O)c3ncoc3C3CC3)CC2)OC1=O (stereo unspecified) | inconclusive: 10% |
| COc1ccc(S(=O)(=O)N2CCCC(C(=O)N3CCCC3)C2)cc1 (stereo unspecified) | inactive |
| COc1cc(C(=O)N2CCN(Cc3ccc([N+](=O)[O-])cc3)CC2)cc(OC)c1OC | inactive |
| O=C(NC1(C(F)(F)F)Oc2ccccc2O1)N1CCOCC1 | inconclusive: 14% |
| Cc1ccc(-c2nnc(-c3nc(Nc4cccc(C)c4)c4ccccc4n3)o2)cc1 | inconclusive: 22% |
| CN(Cc1ccc(-n2cccn2)cc1)C(=O)C(=O)c1cccnc1 | inconclusive: 22% |
| Cc1cc(-c2nnc(CCC(=O)NCc3cccc(C(F)(F)F)c3)o2)no1 | inconclusive: 20% |
| Cc1ccnc(SCC(=O)N2CCc3ccccc3C2)n1 | inconclusive: 17% |
| O=C(CCSc1nc2ccccc2o1)Nc1ccccc1 | inconclusive: 15% |
| O=C1c2ccc(Cl)cc2C(=O)N1c1cccc(O)c1 | inconclusive: 16% |
| COc1cc(CN2CCN(C/C=C/c3ccccc3)CC2)c([N+](=O)[O-])cc1OC | inconclusive: 18% |
| COC(=O)[C@@H](C)NC(=O)[C@H]1CN(C(C)=O)CCN1C(=O)C1CCCCC1 | inconclusive: 11% |
| CN1C[C@@H](N)C[C@H]1C(=O)NCC1CCN(CCc2ccccc2)CC1 | inactive |
| Nc1c(C(=O)NCc2ccc(F)cc2)nnn1Cc1cccc(F)c1 | inconclusive: 14% |
| CN1[C@@H](CCC(=O)N2CCC(O)CC2)CNC(=O)[C@@H]2[C@H]1CCN2C1CCCCC1 | inconclusive: 17% |
| CC(c1ccccc1)n1cnc2c(oc3ccccc32)c1=O (stereo unspecified) | inconclusive: 13% |
| CCCCOc1ccc(C2=NNC(=O)CC2)cc1 | inconclusive: 11% |
| COc1ccc(Nc2cc(C)nc(Nc3ccc(NC(=O)CCC4CCCC4)cc3)n2)cc1 | active: 30% |
| CN(CCn1ccc2ccccc21)C(=O)[C@@H](O)c1ccccc1 | inactive |
| CCC(=O)N(c1ccc(Br)cc1)C1C=CS(=O)(=O)C1 (stereo unspecified) | inactive |
| C=CCN(CC=C)S(=O)(=O)c1ccc(C(=O)N=c2sc3cc([N+](=O)[O-])ccc3n2C)cc1 | inconclusive: 10% |
| COc1cccc(C(=O)Nc2ccc(C)c(OCc3cc(=O)n4cccc(C)c4n3)c2)c1 | active: 31% |

| Compound | inhibition |
| --- | --- |
| NC(=O)c1csc(N2CC[C@@H](c3ccc4c(c3)OCO4)[C@H](O)C2)n1 | inconclusive: 14% |
| O=C(c1ccccc1Cl)N1CCCCCC1 | inconclusive: 19% |
| NC(=O)Cn1c(=O)n(-c2cc(F)ccc2F)c(=O)c2sccc21 | inconclusive: 12% |
| COc1ccc(N2C(=N)S/C(=C\c3ccccc3[N+](=O)[O-])C2=O)cc1 | active: 36% |
| CCCCOC(=O)c1ccc(NC(=O)c2cnc3scc(C)n3c2=O)cc1 | inactive |
| O=C1CC(c2cccc(Cl)c2Cl)c2cc3c(cc2N1)OCCO3 (stereo unspecified) | inconclusive: 11% |
| CN1C[C@@H](NS(=O)(=O)c2ccc(C#N)cc2)C[C@H]1c1nc(-c2ccccc2)no1 | active: 51% |
| CC1(C)CC(=O)C2=C(C1)Nc1ccccc1S2 | inconclusive: 29% |
| O=C(NCCN1CCN(c2ncccn2)CC1)c1cccc2ccnn12 | inconclusive: 10% |
| CCCCn1c(C(C)NC(C)=O)nc2ccccc21 (stereo unspecified) | inconclusive: 19% |
| CC(C)Cn1cc(C(=O)NC2CC2)c2c3ccccc3n(C)c2c1=O | inactive |
| CCN1CCCC1CNc1ncnc(N)c1[N+](=O)[O-] (stereo unspecified) | inactive |
| COCC1(C(=O)N(C)Cc2cn[nH]c2-c2ccc(F)cc2)CCC1 | inactive |
| Cc1[nH]nc2c1C(C1CCCCC1)C(C#N)=C(N)O2 (stereo unspecified) | inactive |
| CCOC(=O)C1=NN(c2cccc(Cl)c2)C2C(=O)N(c3ccccc3OC)C(=O)C12 (stereo unspecified) | inconclusive: 16% |
| O=C(c1cccc2ccccc12)N1CCN=C1SCc1cccnc1 | inactive |
| O=C(O)/C=C/c1ccccc1O[C@@H]1O[C@H](CO)[C@@H](O)[C@H](O)[C@H]1O | inactive |
| COc1ccc(-n2ccnc2-c2c(-c3ccccc3)ncn2CCCO)cc1 | inconclusive: 12% |
| Cc1sc2ncnc(SCC(=O)Nc3sc(-c4ccccc4)cc3C(N)=O)c2c1C | inconclusive: 13% |
| O=C(c1cc2ncc(Br)cn2n1)N1CCOCC1 | active: 38% |
| N#Cc1cccc(NC(=O)O[C@@H]2CO[C@H]3[C@@H]2OC[C@@H]3Nc2nccc(-c3cccc(C#N)c3)n2)c1 | inconclusive: 27% |
| Cc1cc(C)cc(N2CCn3c2nc2c3c(=O)n(CC(C)C)c(=O)n2C)c1 | inconclusive: 15% |
| C(#CCN1CCCC1)C=C(c1ccccc1)c1ccccc1 | inconclusive: 19% |
| Cc1sc2ncnc(N(C)Cc3nc(C4CC4)no3)c2c1C | inconclusive: 13% |

Retrieved by structure from the list above (two):

| Compound | inhibition |
| --- | --- |
| N#Cc1cccc(NC(=O)O[C@@H]2CO[C@H]3[C@@H]2OC[C@@H]3Nc2nccc(-c3cccc(C#N)c3)n2)c1 | inconclusive: 27% |
| CCN1CCCC1CNc1ncnc(N)c1[N+](=O)[O-] (stereo unspecified) | inactive |

Ordered by length of the SMILES (ascending): 3 of the compounds above.

| Compound | inhibition |
| --- | --- |
| Cc1sc2ncnc(N(C)Cc3nc(C4CC4)no3)c2c1C | inconclusive: 13% |
| O=C1CC(c2cccc(Cl)c2Cl)c2cc3c(cc2N1)OCCO3 (stereo unspecified) | inconclusive: 11% |
| CC(C)Cn1cc(C(=O)NC2CC2)c2c3ccccc3n(C)c2c1=O | inactive |

Later entries

| Compound | inhibition |
| --- | --- |
| COCc1ccc(CN2CCC(CCC(=O)Nc3ccc(OC)cc3OC)CC2)o1 | inconclusive: 10% |
| Cc1nc2ncccn2c1C(=O)N1CCc2c(cc(-c3cccc(Cl)c3)c(=O)n2CC2CC2)C1 | inconclusive: 12% |
| CSc1oc(-c2cccs2)nc1S(=O)(=O)c1ccc(F)cc1 | inactive |
| COc1ccc(CNC(=O)CCC2CCCN(C(=O)/C=C/c3ccccn3)C2)c(OC)c1 (stereo unspecified) | inactive |
| O=C(Nc1ccccc1)c1cccc(C(=O)Nc2ccccc2)c1 | inconclusive: 13% |
| CN1CCC(CNC(=O)CCC(=O)Nc2ccc3c(c2)CCC3)C1 (stereo unspecified) | inactive |
| OCc1ccc(-c2ccc3ccccc3n2)cc1 | inconclusive: 17% |
| Cc1cc(C)cc(N(C(=O)c2ccc(C(C)(C)C)cc2)C2C=CS(=O)(=O)C2)c1 (stereo unspecified) | inactive |
| CCN1CC(CN(C)Cc2nc(-c3ccc(C(=O)OC)cc3)oc2C)CC1=O (stereo unspecified) | inconclusive: 14% |
| Cc1c(C(=O)N2CCN(C)C3(CCN(C)CC3)C2)cnc2ccnn12 | inactive |
| COC(=O)c1c(NC(=O)CSc2nccn2C)sc2c1CCC(C(C)(C)C)C2 (stereo unspecified) | active: 35% |
| O=[N+]([O-])c1ccc(C2SCCN2S(=O)(=O)c2ccc(Br)cc2)cc1 (stereo unspecified) | inconclusive: 13% |
| CCc1cn[nH]c1C1CCCN(C(=O)CCn2c(=O)[nH]c3ccccc32)C1 (stereo unspecified) | inactive |
| CCCC(C(=O)N1CCCn2cncc2C1)n1cccc1 (stereo unspecified) | inconclusive: 14% |
| COc1ccc(N2CSC3=C(C#N)C(c4ccccc4OC)CC(=O)N3C2)cc1 (stereo unspecified) | inactive |
| FC(F)(F)c1cccc(NCn2nnc3ccccc32)c1 | inactive |
| CC(C)C1CN(C(=O)CCc2ccncc2)CCCN1Cc1ccc(F)cc1 (stereo unspecified) | inconclusive: 12% |
| OC1(c2cccc(C(F)(F)F)c2)CCN(Cc2nc(COc3ccccc3)no2)CC1 | inactive |
| CC(=O)N1CCC(C(=O)N[C@H]2CCN3C(=O)N(c4cccc(C(F)(F)F)c4)C(=O)[C@@H]3C2)CC1 | inactive |
| COc1ccc(CN(C)C(=O)CC2NC(=O)c3ccccc32)c2cccnc12 (stereo unspecified) | inconclusive: 13% |
| COc1ccc(C2N(c3ccc(Cl)c(Cl)c3)C(=O)C3CCCN32)cc1 (stereo unspecified) | inactive |
| CCOc1ccc(CC(=O)N(c2ccc(C)c(C)c2)C2C=CS(=O)(=O)C2)cc1 (stereo unspecified) | inconclusive: 11% |
| Nc1nnc(/C=C/c2cccc([N+](=O)[O-])c2)s1 | inactive |
| CC(C(=O)Oc1ccc(C(C)(C)C)cc1)N1C(=O)c2ccccc2C1=O (stereo unspecified) | inactive |

| Compound | inhibition |
| --- | --- |
| CCOC(=O)c1c(NC(=O)c2cc(CC(C)C)on2)sc(C(C)=O)c1C | inconclusive: 11% |
| CC(C)C(=O)N1c2ccccc2NC2=C(C(=O)CC(c3ccccc3)C2)C1c1ccccc1 (stereo unspecified) | inactive |
| O=C(Cc1ccc(-n2c(=O)[nH]c3ccsc3c2=O)cc1)N1CCCCC1 | inactive |
| N#Cc1c(N)n(-c2cc(Cl)cc(Cl)c2)c2nc3ccccc3nc12 | inconclusive: 19% |
| Cc1occc1C(=O)N1CCCC(O)(CO)CC1 (stereo unspecified) | inactive |
| O=C1N/C(=C\c2ccccc2F)C(=O)N1Cc1ccc(Cl)cc1 | inconclusive: 12% |
| CC1=C(C(N)=O)C(c2ccncc2)n2nc(SCc3ccccc3Cl)nc2N1 (stereo unspecified) | inactive |
| O=C(O)CCC(C(=O)O)N1C(=O)c2ccccc2C1=O (stereo unspecified) | inactive |
| Oc1oc(-c2ccccc2F)nc1C=Nc1cccc(Cl)c1 | inconclusive: 25% |
| NC(=O)c1cccc(CC2CCN(C(=O)CCn3ccccc3=O)C2)c1 (stereo unspecified) | inactive |
| Cc1nonc1C1CCCN1C(=O)CN1CCOc2ccccc2C1 (stereo unspecified) | inactive |
| Cc1nc(C(=O)NC(c2ccc(Cl)cc2)c2cccnc2)cs1 (stereo unspecified) | inconclusive: 13% |
| Cc1c(NC(=O)/C=C/c2ccco2)cccc1-c1nc2cc(Cl)ccc2o1 | inconclusive: 12% |
| CN1CCn2nc(C(=O)NCCSc3nccn3C)cc2C1 | inconclusive: 16% |
| CC(C)C(C(=O)Nc1ccccc1Br)N1C(=O)c2ccccc2C1=O (stereo unspecified) | inactive |
| COc1cccc(C2C(C(=O)Nc3ccc(C)cn3)=C(C)NC3=C2C(=O)CC(C)(C)C3)c1OC (stereo unspecified) | inactive |
| COc1cccc(Cn2c(CNS(=O)(=O)c3ccc(C)c(C)c3)nc3cccnc32)c1 | inactive |
| CCOc1cccc(/C=C2\NC(=O)N(Cc3ccc(Cl)cc3)C2=O)c1O | inconclusive: 11% |
| CC(O)C#CC1(C)CCCC(C)(C)O1 (stereo unspecified) | inconclusive: 12% |
| Cc1ccc(S(=O)(=O)Nc2ccc(N3CCOCC3)cc2)cc1 | inconclusive: 17% |
| N#Cc1ccccc1CSc1n[nH]c(=O)[nH]c1=O | inconclusive: 12% |
| O=C(NC1CCCc2c1cnn2-c1ccc(F)cc1F)c1ccsc1 (stereo unspecified) | inconclusive: 11% |
| C=CCc1cccc(C=Nc2cc(Br)ccc2O)c1O | inconclusive: 26% |
| CN(C)c1ccc(CNc2ccc3c(c2)ncn3-c2ccccc2)cc1 | inconclusive: 28% |
